The values are deposited in ChEMBL (CHEMBL3988442, “University of Dundee, Small-Polar-MMV Screening Library” (2021)).

The chains behind the UniProt entries cited, without tags or fusion partners.
UniProt P9WFT3, whole entry: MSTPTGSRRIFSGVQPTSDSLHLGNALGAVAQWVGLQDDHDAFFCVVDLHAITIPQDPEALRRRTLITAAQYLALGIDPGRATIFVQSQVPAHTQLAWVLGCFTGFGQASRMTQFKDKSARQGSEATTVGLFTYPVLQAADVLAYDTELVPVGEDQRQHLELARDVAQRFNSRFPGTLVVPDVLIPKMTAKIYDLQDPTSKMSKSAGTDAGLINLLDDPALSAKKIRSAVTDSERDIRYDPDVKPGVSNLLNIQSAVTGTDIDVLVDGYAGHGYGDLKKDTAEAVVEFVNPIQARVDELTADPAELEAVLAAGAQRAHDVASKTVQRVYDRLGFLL
UniProt P9WPC5, whole entry: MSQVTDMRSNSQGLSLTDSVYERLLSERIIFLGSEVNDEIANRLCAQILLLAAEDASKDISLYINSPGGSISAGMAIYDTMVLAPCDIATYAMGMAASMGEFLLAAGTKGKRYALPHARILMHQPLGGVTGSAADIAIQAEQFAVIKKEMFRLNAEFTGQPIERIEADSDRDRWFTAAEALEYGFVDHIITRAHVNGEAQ
UniProt P9WPC3, whole entry partner: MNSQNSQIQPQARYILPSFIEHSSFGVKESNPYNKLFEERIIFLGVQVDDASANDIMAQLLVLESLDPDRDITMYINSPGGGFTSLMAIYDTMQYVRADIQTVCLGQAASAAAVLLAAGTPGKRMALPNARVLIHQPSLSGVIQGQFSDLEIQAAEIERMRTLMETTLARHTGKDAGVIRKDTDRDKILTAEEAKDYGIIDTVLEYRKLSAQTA
UniProt P9WNZ1, whole entry: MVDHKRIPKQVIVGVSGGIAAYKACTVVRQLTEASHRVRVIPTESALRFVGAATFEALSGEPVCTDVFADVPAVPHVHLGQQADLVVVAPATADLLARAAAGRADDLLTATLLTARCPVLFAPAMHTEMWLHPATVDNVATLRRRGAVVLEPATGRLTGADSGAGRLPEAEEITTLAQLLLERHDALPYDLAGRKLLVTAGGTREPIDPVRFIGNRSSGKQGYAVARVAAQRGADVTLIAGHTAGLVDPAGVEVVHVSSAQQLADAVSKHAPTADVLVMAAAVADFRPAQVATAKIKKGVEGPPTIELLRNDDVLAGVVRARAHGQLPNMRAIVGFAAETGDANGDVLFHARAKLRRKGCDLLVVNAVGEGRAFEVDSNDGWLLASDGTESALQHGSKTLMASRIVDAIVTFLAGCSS
UniProt I6X8D2, whole entry: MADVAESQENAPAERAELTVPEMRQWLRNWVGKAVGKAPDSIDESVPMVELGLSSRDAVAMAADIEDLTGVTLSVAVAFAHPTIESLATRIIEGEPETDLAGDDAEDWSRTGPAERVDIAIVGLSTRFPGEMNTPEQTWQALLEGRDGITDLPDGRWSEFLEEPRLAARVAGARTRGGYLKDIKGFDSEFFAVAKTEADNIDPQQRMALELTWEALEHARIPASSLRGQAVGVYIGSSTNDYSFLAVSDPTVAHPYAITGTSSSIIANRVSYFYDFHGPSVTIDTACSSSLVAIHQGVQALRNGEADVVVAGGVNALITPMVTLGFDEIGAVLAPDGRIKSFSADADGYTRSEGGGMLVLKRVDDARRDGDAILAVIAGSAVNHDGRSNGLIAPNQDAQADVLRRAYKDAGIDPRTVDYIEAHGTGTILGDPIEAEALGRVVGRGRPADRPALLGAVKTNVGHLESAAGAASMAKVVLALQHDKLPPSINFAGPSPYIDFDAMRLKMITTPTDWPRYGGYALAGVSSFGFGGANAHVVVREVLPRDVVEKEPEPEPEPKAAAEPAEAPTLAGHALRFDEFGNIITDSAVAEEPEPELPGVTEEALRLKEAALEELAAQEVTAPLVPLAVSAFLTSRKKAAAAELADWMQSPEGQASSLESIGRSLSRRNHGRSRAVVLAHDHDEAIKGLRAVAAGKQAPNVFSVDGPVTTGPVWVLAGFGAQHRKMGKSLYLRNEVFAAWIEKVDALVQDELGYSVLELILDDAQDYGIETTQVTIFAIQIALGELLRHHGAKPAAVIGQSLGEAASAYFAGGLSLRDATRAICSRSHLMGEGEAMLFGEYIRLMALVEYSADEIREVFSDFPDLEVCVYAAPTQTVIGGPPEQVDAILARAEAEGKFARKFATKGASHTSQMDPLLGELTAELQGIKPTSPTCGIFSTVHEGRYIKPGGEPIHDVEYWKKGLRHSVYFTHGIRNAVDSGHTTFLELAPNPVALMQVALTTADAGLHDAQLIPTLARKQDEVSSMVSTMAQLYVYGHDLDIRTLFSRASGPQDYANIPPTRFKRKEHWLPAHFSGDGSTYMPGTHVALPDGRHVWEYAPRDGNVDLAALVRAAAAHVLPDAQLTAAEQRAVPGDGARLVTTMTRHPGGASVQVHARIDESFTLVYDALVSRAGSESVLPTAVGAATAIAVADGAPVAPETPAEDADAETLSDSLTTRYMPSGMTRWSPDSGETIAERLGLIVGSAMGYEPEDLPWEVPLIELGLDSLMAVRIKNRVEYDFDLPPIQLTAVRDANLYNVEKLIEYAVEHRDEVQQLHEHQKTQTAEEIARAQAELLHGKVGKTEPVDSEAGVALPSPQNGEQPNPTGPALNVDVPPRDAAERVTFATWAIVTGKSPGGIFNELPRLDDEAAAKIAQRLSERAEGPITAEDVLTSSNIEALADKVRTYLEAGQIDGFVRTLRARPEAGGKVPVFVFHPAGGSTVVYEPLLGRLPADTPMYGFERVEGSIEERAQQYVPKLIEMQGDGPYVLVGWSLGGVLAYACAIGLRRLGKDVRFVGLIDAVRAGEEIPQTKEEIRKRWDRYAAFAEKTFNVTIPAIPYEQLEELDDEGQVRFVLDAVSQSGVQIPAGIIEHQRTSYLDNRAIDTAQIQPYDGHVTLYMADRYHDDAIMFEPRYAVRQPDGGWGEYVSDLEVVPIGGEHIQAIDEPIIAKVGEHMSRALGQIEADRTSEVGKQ

MtTrpRS: 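Tryptophan-tRNA ligase, Mycobacterium tuberculosis (UniProt P9WFT3). Enzyme assay of tryptophanyl-tRNA synthetase; the read-out is not stated. Compounds at 10 µM. Direction is not recorded; retested compounds ran higher, which suggests that high means inhibition. About 65,000 compounds were tested under these conditions; 0.098% (about 64) showed 50% or more at least once.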
Toxoplasma: 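Assay of Toxoplasma gondii numbers, read through their beta-galactosidase reporter with a colour substrate. Concentration: 10 µM. Higher reads as fewer parasites (inferred from which compounds were picked for retests). Size under these conditions: about 67,000 compounds, about 260 of them at 50% or above in at least one test.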
ClpP1P2: 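ClpP1P2, Mycobacterium tuberculosis (UniProt P9WPC5 and UniProt P9WPC3). Protease assay of ClpP1P2, read by the AMC dye that it sets free. Tested at 50 µM. Direction is inferred from only a few compounds that gave an IC50; most scored high, so higher reads as stronger inhibition. Most other retested compounds had strongly negative values. About 69,000 compounds were tested under these conditions; 0.015% (about 10) showed 50% or more at least once.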
CoaBC: 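Enzyme assay of CoaBC with a phosphate dye (Biomol Green) read at 650 nm. Target: Coenzyme A biosynthesis protein CoaBC, Mycobacterium tuberculosis (UniProt P9WNZ1). Tested at 30 µM. Higher reads as stronger inhibition, judged from the few compounds that gave an IC50. Most strong results did not repeat in a second test. Size under these conditions: about 67,000 compounds, about 40 of them at 50% or above in at least one test.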
Pks13 thioesterase: 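Enzyme assay of the thioesterase domain of polyketide synthase 13; the read-out is not stated. Target: Polyketide synthase Pks13, Mycobacterium tuberculosis (UniProt I6X8D2). Compounds at 30 µM. Higher reads as stronger inhibition (inferred from which compounds were picked for retests). About 67,000 compounds were tested under these conditions; 0.46% (about 300) showed 50% or more at least once.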

Results are given as percent effect. The controls that fix the scale are not given in the record; negative values are as filed. This is an unselected part of the compounds tested. A dash means the value is not listed here; it may have been measured.

compound: O=C(CC1CC1)NC[C@]12COC[C@H]1CN(c1ncccn1)C2
MtTrpRS: -6.545
ClpP1P2: -0.2016
CoaBC: 2.174
Pks13 thioesterase: -11.66

compound: [H][C@@]12COC[C@H](c3nc(C)no3)[C@]1([H])CN(C(=O)Cc1ccccc1F)C2
Toxoplasma: 4.123

compound: COc1ccc(Cc2nnc(SC)o2)cc1OC
MtTrpRS: 1.421
Toxoplasma: -0.3304
ClpP1P2: -8.257
CoaBC: -8.929
Pks13 thioesterase: -15.66

compound: Cc1cc(C)n(C2CN(CCC(N)=O)C2)n1
MtTrpRS: 1.968
Toxoplasma: 3.565
ClpP1P2: -5.364
CoaBC: 10.03
Pks13 thioesterase: 9.28

compound: Cn1ccc(C(=O)N2CCN(CC(O)C(C)(C)C)CC2)cc1=O (stereo unspecified)
MtTrpRS: -1.406
Toxoplasma: 3.163
ClpP1P2: -0.217
CoaBC: 5.471
Pks13 thioesterase: 10.77

compound: O=C(NCC1CC1)Nc1cnc2ccc(F)cc2c1O
Toxoplasma: 16.42
ClpP1P2: 4.851
CoaBC: -2.696
Pks13 thioesterase: 12.64

compound: CN(C)C[C@@H]1CCC[C@@H]2CN(c3nccc(C(F)(F)F)n3)C[C@@H]21
MtTrpRS: -2.991
ClpP1P2: -7.447
CoaBC: -2.545
Pks13 thioesterase: -53.29

compound: Cc1cccc(OCC(=O)NS(=O)(=O)Cc2ccccc2)c1
MtTrpRS: 1.847
Toxoplasma: -3.996
ClpP1P2: 4.301
CoaBC: 17.93
Pks13 thioesterase: -1.501

compound: [H][C@@]12CCN(Cc3ccco3)CC[C@]1([H])[C@@H](COCC1CC1)CN(C)C2=O
Toxoplasma: 2.859

compound: N#Cc1cccc(N2CCC3(CCC(=O)N(CC4CCCO4)C3)CC2)n1 (stereo unspecified)
MtTrpRS: -2.52
Toxoplasma: 9.644
ClpP1P2: -34.97
CoaBC: -0.2558
Pks13 thioesterase: 2.137

compound: COc1ccc(OCCNC(=O)c2ccc3c(=O)[nH][nH]c(=O)c3c2)cc1
MtTrpRS: 26.37
Toxoplasma: -2.652
ClpP1P2: 13.8
CoaBC: 2.163
Pks13 thioesterase: 4.036

compound: CCCN1CCCC2(CCN(Cc3cncn3C3CCCCC3)C2)C1=O (stereo unspecified)
MtTrpRS: -0.1447
Toxoplasma: -8.183
ClpP1P2: -23.46
CoaBC: 0.8696
Pks13 thioesterase: -7.663

compound: COc1ccc(CCN(C)C(C(=O)O)c2ccc(F)c(C)c2)cc1OC (stereo unspecified)
MtTrpRS: -3.003
Toxoplasma: -11.83
ClpP1P2: -12.78
CoaBC: -2.589
Pks13 thioesterase: -2.881

compound: Cc1cc2nc(C(C)C)cc(N3CCC(N(C)C)C3)n2n1 (stereo unspecified)
MtTrpRS: 2.022
Toxoplasma: 23.32
ClpP1P2: -0.344
CoaBC: -0.3632
Pks13 thioesterase: -75.54

compound: O=C(O)C(F)(F)F.[H][C@@]12CCN(c3nnc(C)s3)C[C@]1([H])O[C@H](C(=O)NC1CCCC1)C2
Toxoplasma: -1.56

compound: CCN1CCN(C(C)CNC(=O)Nc2nnc(C)s2)CC1 (stereo unspecified)
MtTrpRS: -5.508
Toxoplasma: 3.864
ClpP1P2: 7.484
CoaBC: 1.167
Pks13 thioesterase: -0.05823

compound: O[C@H]1CN(CCOc2ccc(F)cc2)CC[C@@]12CCCO2
MtTrpRS: -4.232
Toxoplasma: -3.979
ClpP1P2: -7.372
CoaBC: 2.676
Pks13 thioesterase: 5

compound: CN(Cc1ccncc1)C(=O)NC1CCS(=O)(=O)C1 (stereo unspecified)
MtTrpRS: 0.5092
Toxoplasma: -11.62
ClpP1P2: -14.05
CoaBC: 5.612
Pks13 thioesterase: -6.222

compound: COCCn1cc(NCc2cccc3cn[nH]c23)cn1
MtTrpRS: 0.5482
Toxoplasma: 1.329
ClpP1P2: -5.959
CoaBC: -5.868

compound: O=C(c1cc(-c2ccco2)cs1)N1CCCC1
MtTrpRS: -7.593
Toxoplasma: -19.44
ClpP1P2: 1.545
CoaBC: 3.671
Pks13 thioesterase: 8.876

compound: c1cc(-c2nnn3c2COC(CNCc2nccs2)C3)ccn1 (stereo unspecified)
MtTrpRS: 1.424
Toxoplasma: 6.728
ClpP1P2: -3.266
CoaBC: 6.582
Pks13 thioesterase: 0.1874

compound: Cc1ccc(C)c(S(=O)(=O)NC(=O)COc2cccc(C#N)c2)c1
MtTrpRS: 1.141
Toxoplasma: -2.513
ClpP1P2: 7.199
CoaBC: 5.697
Pks13 thioesterase: -10.15

compound: CS(=O)(=O)c1nccn1Cc1ccc(OC(F)F)cc1
MtTrpRS: 1.795
Toxoplasma: -8.537
ClpP1P2: -13.49
CoaBC: 1.474
Pks13 thioesterase: 4.816

compound: CCN1CCOCC12CCN(C(=O)c1ccsc1)CC2
MtTrpRS: -0.6783
ClpP1P2: -9.487
Pks13 thioesterase: -1.503

compound: CCCc1n[nH]c(C2CN(C(=O)c3cc(C4CC4)on3)CCO2)n1 (stereo unspecified)
MtTrpRS: 2.545
Toxoplasma: 18.01
ClpP1P2: -5.793
CoaBC: 5.665
Pks13 thioesterase: -3.217

compound: COCC(=O)N1C[C@@H](c2cccc(OC)c2)[C@@]2(CCCCC(=O)N2)C1
MtTrpRS: -8.249
Toxoplasma: 4.437
ClpP1P2: -2.552
CoaBC: -9.693
Pks13 thioesterase: 11.89

compound: CC(C)c1nn(C)c(N(C)C)c1CNCc1cscn1
MtTrpRS: -3.631
ClpP1P2: 1.014
CoaBC: -4.126
Pks13 thioesterase: -0.7833

compound: O=C(CCC1CCN(Cc2ccncc2)CC1)Nc1ccccc1Cl
MtTrpRS: 2.49
Toxoplasma: 5.606
ClpP1P2: -15.29
CoaBC: -6.362
Pks13 thioesterase: -8.461

The last 2 entries again:

| compound | MtTrpRS | Toxoplasma | ClpP1P2 | CoaBC | Pks13 thioesterase |
|---|---|---|---|---|---|
| `CC(C)c1nn(C)c(N(C)C)c1CNCc1cscn1` | -3.631 | - | 1.014 | -4.126 | -0.7833 |
| `O=C(CCC1CCN(Cc2ccncc2)CC1)Nc1ccccc1Cl` | 2.49 | 5.606 | -15.29 | -6.362 | -8.461 |